The target in the assay is Cbl (Casitas B-lineage lymphoma proto-oncogene) (human (endogenous in HeLa)) (UniProt P22681). Briefly: affinity purification with mass spectrometry.

Results are given in words; binding and its absence hold for the method and conditions named. In cells and extracts the contact can be indirect. Here binding means that the protein was enriched with, or labelled near, the bait; the list need not be complete.

B1: Flotillin-2 (FLOT2) (protein, UniProt Q14254 1-428)
chain: MGNCHTVGPNEALVVSGGCCGSDYKQYVFGGWAWAWWCISDTQRISLEIMTLQPRCEDVETAEGVALTVTGVAQVKIMTEKELLAVACEQFLGKNVQDIKNVVLQTLEGHLRSILGTLTVEQIYQDRDQFAKLVREVAAPDVGRMGIEILSFTIKDVYDKVDYLSSLGKTQTAVVQRDADIGVAEAERDAGIREAECKKEMLDVKFMADTKIADSKRAFELQKSAFSEEVNIKTAEAQLAYELQGAREQQKIRQEEIEIEVVQRKKQIAVEAQEILRTDKELIATVRRPAEAEAHRIQQIAEGEKVKQVLLAQAEAEKIRKIGEAEAAVIEAMGKAEAERMKLKAEAYQKYGDAAKMALVLEALPQIAAKIAAPLTKVDEIVVLSGDNSKVTSEVNRLLAELPASVHALTGVDLSKIPLIKKATGVQV
On to B1, for which the binding entry is reported as “binds”.

For the origin of these results see paper doi:10.1101/2022.03.11.483779.
